Assay results from patent US7544467B2, “Method for the identification of compounds capable of activating latent human immunodeficiency virus (HIV)” (The J. David Gladstone Institutes, priority 2001, dated 2009).
Some of these results come from one statement about several compounds together.

Tested on: latent HIV promoter (LTR-Tat-IRES-GFP vector) in Jurkat-derived cells
Assay: Reactivation of latent LTR-Tat-IRES-GFP vector in Jurkat cells/clones, GFP by flow cytometry
Assay type: cell-based
Conditions: Jurkat infected with LTR-Tat-IRES-GFP at low MOI, sorted GFP-negative population; 10 nM TPA or 10 ng/ml TNF-α, 17 h
Description: To obtain a random library of clones containing the vector LTR-Tat-IRES-GFP integrated, Jurkat cells were infected at an MOI (multiplicity of infection) of 0.1 followed by serial dilution and plating in 96-well plates. Individual clones obtained after 3 weeks were analyzed by flow cytometry for GFP expression. For the purification of latently infected cells, Jurkat cells were infected with the LTR-Tat-IRES-GFP viral stock at an MOI of 0.1 and kept in culture for at least 96 h. GFP-negative (GFP^−) and GFP-positive (GFP^+) cells were separated by fluorescence activated cell sorting (FACS) and further cultured. One week later, GFP^− cells were incubated with 10 nM TPA or 10 ng/ml TNF-α for 17 h. […]
Cells were washed in PBS and resuspended in PBS containing 1% paraformaldehyde. GFP fluorescence was measured with a FACScalibur machine (Becton Dickinson, San Jose, Calif.). A two narameter analysis to distinguish GFP-derived fluorescence from background fluorescence was used: CFP was measured in FL1 and cellular autofluorescence was monitored in FL2. […] A gate (R2) containing GFP-positive cells was drawn compared to an uninfected control, and the data shown refer to the percentage of cells in R2 or mean fluorescence intensity (MFI) of those cells. Results shown throughout the manuscript are representative three independent experiments, except when libraries of clones were analyzed. […]

tetradecanoyl phorbol acetate [TPA]
percentage of GFP-positive cells after treatment of GFP-negative cells: less than 0.06%
